The text below walks through data of PubChem BioAssay AID2685 (National Center for Advancing Translational Sciences (NCATS), 2010).

This assay in a line: qHTS Assay for Lipid Storage Modulators in Drosophila S3 Cells.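 For cell number change: cells counted by Cell Tracker Red CMTPX staining in the red channel.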 The conditions noted are these: BODIPY lipid droplet fluorescence, 18-24 h; for cell number change: measured here: cell count max response, cells fed with added oleic acid. In short, it runs like this: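 Drosophila S3 cells loaded with oleic acid (400 uM, as added) and compounds at several concentrations; lipid droplets imaged by 488-nm laser-scanning cytometry, 500–530 nm intensity and object ratio to cell channel. Percent activity normalized to 20 uM Triacsin C.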

Where [1] appears, read: measured here: lipid fluorescence (Fed channel) AC50, cells fed with added oleic acid.
Setting [2] is: measured here: cell number channel AC50, cells fed with added oleic acid.

The other results are listed elsewhere or left out. These are further read-outs of the screen, such as a control signal, another cell line or another target. No call is given for them. Most of these compounds were active or inconclusive in the main read-out, so they are no random draw. The note in brackets gives the kind of curve behind each potency; many fits are weak.

Take `CNC(=O)/C(C#N)=C/c1c(F)cccc1Cl`: the AC50 under setting [1] was 13 µM [falling, partial curve].

For `O=C1CC(N2CCCCCC2)C(=O)N1c1ccc2c(c1)OCO2` (stereo not given), the cell number change is -2.23%. Also, under setting [1], the AC50 is 29.1 µM [rising, single point]. Consider `CC(=O)c1ccc(NC(=O)CSc2nnc(-c3ccoc3C)n2Cc2ccccc2)cc1`, for which the AC50 under setting [2] was 1.84 µM [rising, partial curve] and the AC50 under setting [1] is 0.731 µM [rising, full curve]. Take `CCOC(=O)c1cc2n(c1/N=C/N(C)C)-c1ccccc1C2=O`: the cell number change was determined as 126%. The half-maximal activity concentration (AC50) under setting [2] is 0.291 µM [rising, full curve]. Also, under setting [1], the concentration at half-maximal activity (AC50) is 0.411 µM [rising, partial curve, poor fit]. Take `COc1ccc(CNC(=O)CCCn2nc(C)n3c(cc4sccc43)c2=O)cc1`: the cell number change came out at 11.8%. Also, the AC50 under setting [1] was 29.1 µM [falling, single point]. Consider `Cc1cc(C)cc(NC(=O)C2CCCN(S(=O)(=O)c3ccc4[nH]c(=O)ccc4c3)C2)c1` (stereo not given), for which the cell number change was determined as 19.9%. In addition, the concentration at half-maximal activity (AC50) under setting [2] was 0.58 µM [rising, full curve, poor fit]. Consider `O=C(NCCn1cccn1)C1CCC(=O)N(CCc2cccc(F)c2)C1` (stereo not given), for which the cell number change amounted to 13.9%. For the same compound, under setting [2], the AC50 was 0.13 µM [rising, full curve, poor fit]. Consider `Cc1cccn2c(=O)c(C=C(C#N)C#N)c(N3CCN(c4cccc(Cl)c4)CC3)nc12`, for which the cell number change worked out at 2.95%. Under setting [1], the AC50 is 6.51 µM [falling, partial curve, poor fit]. On to `CCOC(=O)N1CCN(S(=O)(=O)c2ccc(OCC)cc2)CC1`, for which the cell number change stood at 41.9%. For the same compound, the AC50 under setting [2] is 29.1 µM [rising, single point]. For `O=C(NC(=S)NCc1ccccc1)c1cccnc1`, the cell number change came out at 18.8%. Also, the AC50 under setting [1] was 1.03 µM [rising, partial curve, poor fit]. With `COc1ccc(N=Nc2nc3ccc(Br)cc3n2C)cc1`, the cell number change worked out at 29.3%. Under setting [1], the AC50 is 8.2 µM [rising, partial curve].

Turning to `CSCCC(NS(=O)(=O)c1ccccc1F)C(=O)OCc1ccccc1Cl` (stereo not given), the cell number change was -6.54%. For the same compound, the half-maximal activity concentration (AC50) under setting [1] is 25.9 µM [rising, single point]. As for `CCOC(=O)c1cnc2ccc(Br)cc2c1NCCO`, the cell number change is -12%. Also, the AC50 under setting [1] is 2.91 µM [rising, partial curve]. Take `CCOC(=O)c1ccc[n+](CC(=O)c2ccccc2)c1`: the cell number change is -10.2%. Further, the concentration at half-maximal activity (AC50) under setting [1] is 3.66 µM [rising, single point].

Take `Cc1ccc(Cl)cc1NC(=O)c1ccccc1OCC(=O)Nc1ccc(Cl)cc1`: the cell number change is -55.2%. The concentration at half-maximal activity (AC50) under setting [2] is 20.6 µM [falling, single point]. In addition, under setting [1], the half-maximal activity concentration (AC50) was 18.4 µM [falling, single point]. With `COC(=O)C1(C)NC(c2ccc(O)cc2)C2C(=O)N(c3ccccc3)C(=O)C21` (stereo not given), the cell number change is -5.57%. In addition, under setting [1], the AC50 is 0.731 µM [rising, full curve, poor fit]. Turning to `O=C(CSc1nnc(C2CC2)n1Cc1ccccc1)N1CCN(S(=O)(=O)c2ccccc2)CC1`, the cell number change is -17.3%. Further, under setting [1], the half-maximal activity concentration (AC50) is 29.1 µM [rising, single point]. Consider `Cc1ccc(-n2cc[nH]c2=S)c(C)c1`, for which the cell number change was -96.5%.

For `CC1CCCN(C(=O)CCCn2c(=S)[nH]c3ccccc3c2=O)C1` (stereo not given), the cell number change is -36.5%. Besides, the half-maximal activity concentration (AC50) under setting [2] is 14.6 µM [falling, partial curve]. Further, under setting [1], the half-maximal activity concentration (AC50) was 10.3 µM [falling, partial curve]. As for `N#Cc1cccc(N=c2ssnc2Cl)c1`, the cell number change is -14.1%. Also, the AC50 under setting [2] was 6.51 µM [rising, partial curve, poor fit].

On to `COc1ccc(CCN(C)CC(=O)Nc2cc(C)nc3ccccc23)cc1OC`, for which the cell number change is -0.8%. Also, the concentration at half-maximal activity (AC50) under setting [1] is 3.26 µM [falling, single point]. Turning to `Cc1oc(C(C)(C)C)cc1C(=O)Nc1ccc(C(=O)O)cc1`, the cell number change turned out to be 0.421%. Turning to `O=C(NCCN1C(=O)S/C(=C/c2ccccc2)C1=O)C1CCCN1C(=O)c1cccs1` (stereo not given), the cell number change is -31.5%. Also, the half-maximal activity concentration (AC50) under setting [2] was 18.4 µM [falling, partial curve, poor fit]. Further, the half-maximal activity concentration (AC50) under setting [1] was 23.1 µM [falling, partial curve].

For `Cc1ccc2cc3cc(C(=O)N4CCCCC4C)oc3nc2c1` (stereo not given), the cell number change was -3.16%.

As to `OCCN1CCN(C(=S)NC2CCCC2)CC1`, the cell number change was determined as 37.5%. Still for that read-out and setting: next, `Cc1cc(C)n2nc(S(=O)(=O)NCCc3ccccc3)nc2n1`: -0.552%. Consider `CC(C)CNS(=O)(=O)c1ccccc1C(=O)N1CCCCC1`, for which the cell number change was 52.3%. The AC50 under setting [1] was 14.6 µM [rising, partial curve]. Consider `O=C(CN(Cc1ccccc1)C(=O)c1cccc([N+](=O)[O-])c1)Nc1c(Cl)cc(Cl)cc1Cl`, for which the cell number change turned out to be 14.6%. Besides, the AC50 under setting [1] was 14.6 µM [rising, single point]. Turning to `O=c1[nH]c(C2CCN(S(=O)(=O)c3ccc(C(F)(F)F)cc3)CC2)nc2c1nnn2Cc1cccc(F)c1`, the cell number change turned out to be 2.08%. Besides, the half-maximal activity concentration (AC50) under setting [1] was 1.16 µM [falling, single point]. Take `Cc1ccc(OCC(O)Cn2c(N)nc3c2c(=O)n(C)c(=O)n3C)cc1` (stereo not given): the cell number change was -19.2%. Also, the AC50 under setting [1] was 23.1 µM [falling, single point]. For the compound `CCOc1cc(NC(=O)C2CCCO2)c(OCC)cc1NC(=O)C1CC1` (stereo not given), the cell number change came to 13.8%. For the compound `O=C1CN(C(=O)COC(=O)c2ccccc2NCc2ccco2)c2ccccc2N1`, the half-maximal activity concentration (AC50) under setting [2] was 1.84 µM [rising, partial curve]. Take `Cc1cc(N)n(-c2ccccc2C)n1`: the AC50 was 0.00651 µM [rising, full curve, poor fit] under setting [2] and 0.116 µM [rising, single point] under setting [1]. `O=C(N/N=C\c1cccnc1)c1ccc(Cl)s1`: the cell number change turned out to be 20.9%. Regarding `CC1(C)CC(=O)C/C(=N\NC(=O)CCc2ccc(S(=O)(=O)N3CCOCC3)cc2)C1`, the cell number change is 0.82%. Besides, under setting [2], the half-maximal activity concentration (AC50) is 0.00461 µM [falling, full curve, poor fit]. Regarding `CN(C)NC(=O)c1ccsc1NC(=O)c1ccc(S(=O)(=O)N2CCCC2)cc1`, the cell number change is -19%. On to `CS(=O)(=O)N1CCC(c2noc(-c3ccc(C(F)(F)F)cc3)n2)CC1`, for which the cell number change is -32.2%. Also, the AC50 under setting [2] was 8.2 µM [falling, partial curve, poor fit]. Besides, under setting [1], the AC50 was 29.1 µM [falling, single point]. In the case of `Nn1c(SCC(=O)Nc2ccc(S(=O)(=O)N3CCCC3)cc2)nnc1C(F)(F)F`, the cell number change was determined as 62.4%. For the same compound, the half-maximal activity concentration (AC50) under setting [2] was 29.1 µM [rising, single point]. The AC50 under setting [1] is 29.1 µM [rising, single point]. As for `O=C(NC(CO)c1ccccc1)c1ccco1` (stereo not given), the cell number change was 13.4%. Moreover, the AC50 under setting [1] is 29.1 µM [falling, single point].

On to `CCOc1ccc(-n2cc(C(=O)N3CCC(C)CC3)c3cc(OC)c(OC)cc3c2=O)cc1`, for which the cell number change is 36.8%. Besides, the AC50 under setting [2] is 1.64 µM [rising, full curve]. Moreover, the half-maximal activity concentration (AC50) under setting [1] is 0.651 µM [rising, full curve, poor fit]. With `CC1(C)CC2CC(C)(CN2S(=O)(=O)c2ccc(N)cc2)C1` (stereo not given), the cell number change came out at 4.45%. Besides, the concentration at half-maximal activity (AC50) under setting [1] was 0.164 µM [falling, full curve, poor fit]. Turning to `COc1ccc(S(=O)(=O)N2CCOCC2)cc1NC(=O)CSc1nnnn1C1CC1`, the cell number change is -46.1%. For the same compound, the AC50 under setting [2] is 7.31 µM [falling, partial curve, poor fit]. For the same compound, the AC50 under setting [1] was 16.4 µM [falling, partial curve]. With `COc1ccc(N(Cc2cc3ccccc3[nH]c2=O)C(=O)C2CCCO2)cc1` (stereo not given), the cell number change is 6.26%. In addition, the half-maximal activity concentration (AC50) under setting [1] was 29.1 µM [rising, partial curve, poor fit].

As to `CC(C)n1c(SCC(=O)Nc2ccc3c(c2)OCO3)nc2c1c(=O)n(C)c(=O)n2C`, the cell number change amounted to 1.7%. In addition, the half-maximal activity concentration (AC50) under setting [1] is 1.46 µM [rising, full curve]. Regarding `Cc1ccc(C(=O)Nc2ccccc2Cl)cc1`, the cell number change came to 4.01%. Also, the AC50 under setting [2] was 0.291 µM [rising, partial curve, poor fit]. Besides, the AC50 under setting [1] was 0.58 µM [rising, single point].

`NC(=O)N/N=C/c1ccc2cccc(OCc3ccccc3)c2n1`: the cell number change stood at 27.3%. Further, under setting [2], the half-maximal activity concentration (AC50) was 2.91 µM [rising, partial curve, poor fit]. Further, under setting [1], the AC50 is 0.103 µM [rising, partial curve, poor fit].

As for `Cc1cccc2cc(CN(Cc3cccs3)Cc3nnnn3Cc3ccccc3)c(=O)[nH]c12`, the cell number change is 4.39%.

As for `Cc1cccc(C(=O)NC(=S)Nc2ccc(Cc3ccncc3)cc2)c1`, the cell number change was -6.69%. The concentration at half-maximal activity (AC50) under setting [1] is 18.4 µM [falling, single point]. For the compound `O=C(NS(=O)(=O)Oc1cccc(F)c1)OC[C@@H]1CCCN2CCCCC12` (stereo not given in full), the cell number change is -10.4%. As to `CCOc1ccc(N(CC(=O)NC2CCCC2)C(=O)CCC(=O)Nc2nccs2)cc1`, the cell number change was -2.63%. Take `CC1CCCN(CCCN2C(=O)C3C(C(=O)Nc4ccc(Cl)cc4)C4C=CC3(O4)C2C(=O)NC2CCCCC2)C1` (stereo not given): the cell number change amounted to 14.5%. Also, the AC50 under setting [1] is 0.146 µM [falling, full curve, poor fit].

As to `COc1cccc(Nc2nc(-c3ccccc3)nc3ccccc23)c1`, the cell number change was 5.19%.

With `Cc1cc(-n2c(C)cc(C(=O)CSc3[nH]c(=O)cc(C(F)(F)F)c3C#N)c2C)no1`, the cell number change is -0.518%. Besides, under setting [1], the AC50 is 29.1 µM [rising, single point].

For `CCOC(=O)CC(NC(=O)c1cccs1)c1ccc(OCC)cc1` (stereo not given), the cell number change was -5.65%. The AC50 under setting [1] was 0.00411 µM [falling, full curve, poor fit]. For the compound `Cc1cc(C)n2nc(SCCC(=O)NCc3ccccc3)nc2n1`, the concentration at half-maximal activity (AC50) under setting [2] is 6.51 µM [rising, single point]. For the compound `Cc1nnc(SCC(=O)Nc2nccs2)n1C(C)C`, the cell number change was -19.4%. Further, the concentration at half-maximal activity (AC50) under setting [1] is 6.51 µM [rising, single point]. In the case of `CCOC(=O)c1c(C)n(-c2ccc(C)cc2)c2ccc(OCC(O)CNCC3CCCO3)cc12` (stereo not given), the cell number change was -46.8%. Also, the half-maximal activity concentration (AC50) under setting [2] was 29.1 µM [falling, single point]. In addition, under setting [1], the half-maximal activity concentration (AC50) was 29.1 µM [falling, single point].

In the case of `CC(C)(C)NC(=O)C(c1ccc(Cl)cc1)N(Cc1ccco1)C(=O)CCl` (stereo not given), the cell number change stood at 3.16%. In the case of `Cc1ccc(S(=O)(=O)N(C)C)cc1NC(=O)C(C)NC(C)c1cccs1` (stereo not given), the cell number change was -0.84%. Moreover, the AC50 under setting [1] was 29.1 µM [falling, single point].

Turning to `CSCCC(=O)N1CCCC(CNC(=O)c2ccccc2Cl)C1` (stereo not given), the cell number change is -10.6%. Under setting [1], the concentration at half-maximal activity (AC50) was 2.59 µM [falling, partial curve, poor fit].
